# Reference: PubChem BioAssay (EPA / NIEHS)
# Chains of the proteins cited; added tags and fusions are not shown. Lines headed by an entry give the natural chain unless they say otherwise; changes in a name come on top.
# UniProt P15204: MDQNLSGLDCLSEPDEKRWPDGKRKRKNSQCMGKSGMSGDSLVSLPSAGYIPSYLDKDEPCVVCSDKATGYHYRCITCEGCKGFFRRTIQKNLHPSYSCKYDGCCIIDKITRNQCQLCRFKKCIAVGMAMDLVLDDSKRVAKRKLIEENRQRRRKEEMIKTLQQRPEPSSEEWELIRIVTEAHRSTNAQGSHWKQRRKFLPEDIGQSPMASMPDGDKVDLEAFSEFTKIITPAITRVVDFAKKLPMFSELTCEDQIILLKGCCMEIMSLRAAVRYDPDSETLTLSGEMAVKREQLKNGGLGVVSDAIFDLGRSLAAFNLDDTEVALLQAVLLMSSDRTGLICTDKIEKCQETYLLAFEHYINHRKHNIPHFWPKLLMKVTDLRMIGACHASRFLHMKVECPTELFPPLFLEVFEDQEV
# Values joined by “and” are separate entries in the source; they are usually repeats but may differ in a detail not shown here. Equal entries are not always repeated. Inconclusive results, whose numbers are uncertain, are shown with a selection of clear calls. For some assays here: A potency beside an inconclusive call is a rough fit, not a confirmed value. Active and inactive are the calls of the source. The calls were made as follows: active = hit-call score of the fitted dose curve at least 0.9, where 1 is the maximum; inconclusive = response in the unintended direction; inactive = score below 0.9.
# Columns and labels:
# [1] = ACEA_ER_AUC_viability: ACEA Biosciences xCELLigence Real-Time Cell Analysis on Estrogen Receptor Agonism for Viability (AID 2283782);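 also: hit means loss of impedance signal meaning reduced cell growth or viability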
# Procedure, shortened: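 Read-out: real-time electrical impedance (RT-CES) area under curve, loss of signal taken as reduced viability, normalized to DMSO baseline. T-47D cells, charcoal-stripped serum medium, compounds up to 100 uM final, continuous exposure, 80 h.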
# [2] = ATG_M_06_XSP1: Attagene TRANS-FACTORIAL Multi-Species (XSP1) HepG2 Assay for M06 Transcription Factor (Internal Marker) (AID 2283790)
# Procedure, shortened: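 This background-control readout tracks M06 reporter mRNA, measured by RT-PCR and capillary electrophoresis. HepG2 cells transiently carrying the GAL4-UAS reporter panel were dosed for 24 h with 3 nM 6-alpha-fluorotestosterone added for partial AR stimulation; increases were scored relative to DMSO.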
# [3] = biological target: frog Thyroid hormone Receptor alpha (TRa), thra-a (gene 397942) (UniProt P15204); assay: ATG_frTRa_XSP1: Attagene TRANS-FACTORIAL Multi-Species (XSP1) HepG2 Assay for frog Thyroid hormone Receptor alpha (TRa) (AID 2283804)
# Procedure, shortened: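 Reporter transcript induction, measured by RT-PCR with 6-FAM labelling and capillary electrophoresis, 24 hr after dosing transiently transfected HepG2 cells expressing a frog TRa-GAL4 fusion; medium contained 3 nM 6-alpha-fluorotestosterone; increase over DMSO scored.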
smiles,measurement,setting,value
OCCC(O)CO (centres undefined),outcome,[1],inactive
O=P(O)(O)Oc1ccccc1,AC50,[1],active: 50 µM
CCCCCCOCCO,AC50,[1],inconclusive: 25.8 µM
O=C(O)CO,AC50,[1],inconclusive: 0.0126 µM
COCCCN,outcome,[1],inactive
CCC(=O)OC(C)(C)C1CC=C(C)CC1 (centres undefined),outcome,[1],inactive
COC(=O)c1ccc(C(=O)OC)cc1,outcome,[1],inactive
C=C(C)C(N)=O,AC50,[1],inconclusive: 21.7 µM
CCCCCOC(=O)COc1cc(N2C(=O)C3=C(CCCC3)C2=O)c(F)cc1Cl,outcome,[1],inactive
O=C1CCC(C2CCCCC2)CC1,AC50,[1],inconclusive: 17.6 µM and inconclusive: 10.7 µM and inconclusive: 121 nM
O=c1[nH]cnc2c1ncn2[C@H]1CC[C@@H](CO)O1,AC50,[1],inconclusive: 17.8 µM
COc1ccccc1C=O,outcome,[1],inactive
O=C1CCC(=O)N1Cl,outcome,[1],inactive
O=C(O)CCC(F)(F)C(F)(F)C(F)(F)C(F)(F)C(F)(F)C(F)(F)C(F)(F)F,AC50,[1],inconclusive: 137 µM
FC(F)(F)C(F)(F)CNCC(F)(F)C(F)(F)F,outcome,[1],inactive
NC(=O)Nc1ccccc1,AC50,[1],inconclusive: 0.0599 µM
O=C(O)c1cccc(Oc2ccccc2)c1,outcome,[1],inactive
C=COCC1CCC(COC=C)CC1 (centres undefined),outcome,[1],inactive
O=Cc1ccccc1O,AC50,[1],inconclusive: 10.8 µM
O=[N+]([O-])c1ccc(O)cc1,AC50,[1],inconclusive: 50 µM
same,outcome,[1],inactive
CCC(C)(O)CCC=C(C)C (centres undefined),AC50,[1],active: 79.1 µM
C=C(C)C(=O)OCCOCCOC(=O)C(=C)C,AC50,[1],active: 21.2 µM
CN(C)C(C)(C)CO,AC50,[1],inconclusive: 50 µM
C=C(F)C(=O)OC(C(F)(F)F)C(F)(F)F,AC50,[1],inconclusive: 75 µM
CCOC(=O)COc1ccc(C)cc1,outcome,[1],inactive
Cc1cc2c(cc1C(F)(F)F)N(C(=O)Nc1ccc(Oc3cccnc3C)nc1)CC2,AC50,[1],active: 15.6 µM
O=S(=O)(O)c1ccc(Nc2nc(Nc3ccc(C=Cc4ccc(Nc5nc(Nc6ccc(S(=O)(=O)O)cc6)nc(N(CCO)CCO)n5)cc4S(=O)(=O)O)c(S(=O)(=O)O)c3)nc(N(CCO)CCO)n2)cc1,outcome,[1],inactive
c1ccc(B(c2ccccc2)c2ccccc2)cc1,AC50,[1],inconclusive: 7.87 µM
CC(=O)c1ccc2c(c1)CCCC2,AC50,[1],active: 31.7 µM
CN(Cc1cnc2nc(N)nc(N)c2n1)c1ccc(C(=O)N[C@@H](CCC(=O)O)C(=O)O)cc1,AC50,[1],inconclusive: 50 µM
CCCCCC/C=C/C=O,AC50,[1],inconclusive: 0.199 µM
O=C(O)c1ccc2c(c1)nc(C(=O)NC1CCN(C3CC3)CC1)n2Cc1cc(-c2ccc(Cl)s2)on1,outcome,[1],inactive
O=C1c2ccc(O)c(O)c2C(=O)c2c(O)ccc(O)c21,AC50,[1],active: 6.67 µM
CC(=O)OC(C)(C)C,AC50,[1],inconclusive: 50 µM
O=S(=O)(O)c1ccc2ccccc2c1,AC50,[1],inconclusive: 9.92 µM
c1ccc2c(c1)-c1cccc3c1c-2cc1ccccc13,AC50,[1],inconclusive: 0.659 µM
NCc1cccc(CN)c1,outcome,[1],inactive
CCCCCCCC[N+](C)(CCCCCCCC)CCCCCCCC,AC50,[1],active: 1.92 µM
CCCCN(C)C,outcome,[1],inactive
CCOC(=O)CC(O)(CC(=O)OCC)C(=O)OCC,AC50,[1],inconclusive: 0.585 µM
C[Si](C)(CCCN)O[Si](C)(C)CCCN,AC50,[1],active: 55.9 µM
CC(CCC(=O)O)(c1ccc(O)cc1)c1ccc(O)cc1,AC50,[1],inconclusive: 6.38 µM
c1ccc(Sc2ccccc2)cc1,AC50,[1],active: 83.4 µM
CCCCCCCCCCO,AC50,[1],inconclusive: 11.6 µM
CCCCCCOC(=O)CC(CC(=O)OCCCCCC)(OC(=O)CCC)C(=O)OCCCCCC,AC50,[1],inconclusive: 50 µM
CCC(C)CO (centres undefined),AC50,[1],active: 74.7 µM
O=C(O)c1ccccc1,AC50,[1],inconclusive: 51 µM and inconclusive: 50 µM
same,outcome,[1],inactive
CC(C)(C)C(=O)c1ccccc1,outcome,[1],inactive
Cc1ccc(S(=O)(=O)C(I)I)cc1,AC50,[1],active: 4.22 µM
CCCCc1oc2ccccc2c1C(=O)c1cc(I)c(OCCN(CC)CC)c(I)c1,AC50,[1],active: 11.5 µM
O=[N+]([O-])c1cccc(Cl)c1,outcome,[1],inactive
CCn1c2ccccc2c2cc(N)ccc21,outcome,[1],inactive
CCc1ccc2c(c1)C(=O)c1ccccc1C2=O,AC50,[1],inconclusive: 50 µM
CC(C)CC=C(C=O)c1ccccc1,AC50,[1],inconclusive: 36.9 µM
CC1=CC[C@H]2C[C@@H]1C2(C)C,outcome,[1],inactive
CC[C@H](c1ccc(O)cc1)[C@@H](CC)c1ccc(O)cc1,outcome,[2],inactive
same,AC50,[3],inconclusive: 100 nM

# Two successive entries out of the list so far, for reference:
smiles,measurement,setting,value
C=C(C)C(N)=O,AC50,[1],inconclusive: 21.7 µM
CCCCCOC(=O)COc1cc(N2C(=O)C3=C(CCCC3)C2=O)c(F)cc1Cl,outcome,[1],inactive
